Source: PMC4638191, “Multicomponent reaction-based synthesis and biological evaluation of tricyclic heterofused quinolines with multi-trypanosomatid activity” (European Journal of Medicinal Chemistry, 2015)

Test system: bloodstream form T. brucei (strain 221)
Test: Trypanocidal activity against cultured bloodstream form T. brucei (resazurin)
Conditions: ratio EeAChE IC50 / T. brucei IC50

Structure (SMILES): NCc1ccc(-c2nc3ccc(Cl)cc3c3c2CCCO3)cc1 [Compound 39, 4-{9-Chloro-3,4-dihydro-2H-pyrano[3,2-c]quinolin-5-yl}benzylamine]
- fold more potent against T. brucei than against EeAChE: > 20 fold

Structure (SMILES): Clc1ccc2nc(-c3cccs3)c(CCCN3CCCC3)cc2c1 [Compound 49, N-{3-[6-Chloro-2-(2-thienyl)quinolin-3-yl]propyl}pyrrolidine]
- fold more potent against T. brucei than against EeAChE: ~8 fold
